The values that follow come from the supplement of paper PMC12067093, “Discovery and optimisation of a covalent ligand for TRIM25 and its application to targeted protein ubiquitination” (Chemical Science, 2025).

Amino acid sequences for entries named in this document (tags omitted). A change or cut given only in a name is not applied to a line headed by its entry.
UniProt Q00796: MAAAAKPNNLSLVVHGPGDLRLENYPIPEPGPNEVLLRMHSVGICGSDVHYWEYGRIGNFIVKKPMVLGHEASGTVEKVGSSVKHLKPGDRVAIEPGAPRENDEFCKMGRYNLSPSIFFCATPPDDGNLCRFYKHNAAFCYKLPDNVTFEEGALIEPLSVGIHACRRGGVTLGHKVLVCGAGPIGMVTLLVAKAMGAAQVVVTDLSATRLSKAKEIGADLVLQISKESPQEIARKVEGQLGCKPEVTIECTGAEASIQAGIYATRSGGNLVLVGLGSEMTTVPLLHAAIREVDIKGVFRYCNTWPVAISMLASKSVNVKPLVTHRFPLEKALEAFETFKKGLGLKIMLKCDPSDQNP
UniProt Q5M775: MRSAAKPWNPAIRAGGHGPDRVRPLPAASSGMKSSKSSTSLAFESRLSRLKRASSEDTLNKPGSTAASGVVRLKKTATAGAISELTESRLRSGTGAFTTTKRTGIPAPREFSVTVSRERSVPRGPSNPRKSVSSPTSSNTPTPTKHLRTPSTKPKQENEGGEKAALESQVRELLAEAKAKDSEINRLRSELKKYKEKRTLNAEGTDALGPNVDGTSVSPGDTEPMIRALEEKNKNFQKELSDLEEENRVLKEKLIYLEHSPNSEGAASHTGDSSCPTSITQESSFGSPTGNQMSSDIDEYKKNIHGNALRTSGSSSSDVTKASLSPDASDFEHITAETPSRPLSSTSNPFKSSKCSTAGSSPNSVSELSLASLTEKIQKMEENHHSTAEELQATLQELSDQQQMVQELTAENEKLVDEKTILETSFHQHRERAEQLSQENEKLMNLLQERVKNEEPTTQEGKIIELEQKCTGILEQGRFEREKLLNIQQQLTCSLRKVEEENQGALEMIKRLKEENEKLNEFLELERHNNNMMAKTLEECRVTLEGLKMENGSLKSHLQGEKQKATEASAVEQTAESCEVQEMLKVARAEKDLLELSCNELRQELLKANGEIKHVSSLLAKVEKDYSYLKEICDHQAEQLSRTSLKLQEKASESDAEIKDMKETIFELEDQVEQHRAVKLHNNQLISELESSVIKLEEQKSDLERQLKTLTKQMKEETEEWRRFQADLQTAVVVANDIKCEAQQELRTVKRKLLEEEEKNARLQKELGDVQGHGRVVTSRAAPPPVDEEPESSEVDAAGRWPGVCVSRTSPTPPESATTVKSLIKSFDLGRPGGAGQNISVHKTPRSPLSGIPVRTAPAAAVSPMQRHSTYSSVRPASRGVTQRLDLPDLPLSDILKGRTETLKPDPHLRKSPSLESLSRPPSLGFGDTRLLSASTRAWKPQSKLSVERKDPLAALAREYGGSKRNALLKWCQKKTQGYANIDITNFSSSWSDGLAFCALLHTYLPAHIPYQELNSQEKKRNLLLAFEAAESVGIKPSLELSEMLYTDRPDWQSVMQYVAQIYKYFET
UniProt Q8N5C6: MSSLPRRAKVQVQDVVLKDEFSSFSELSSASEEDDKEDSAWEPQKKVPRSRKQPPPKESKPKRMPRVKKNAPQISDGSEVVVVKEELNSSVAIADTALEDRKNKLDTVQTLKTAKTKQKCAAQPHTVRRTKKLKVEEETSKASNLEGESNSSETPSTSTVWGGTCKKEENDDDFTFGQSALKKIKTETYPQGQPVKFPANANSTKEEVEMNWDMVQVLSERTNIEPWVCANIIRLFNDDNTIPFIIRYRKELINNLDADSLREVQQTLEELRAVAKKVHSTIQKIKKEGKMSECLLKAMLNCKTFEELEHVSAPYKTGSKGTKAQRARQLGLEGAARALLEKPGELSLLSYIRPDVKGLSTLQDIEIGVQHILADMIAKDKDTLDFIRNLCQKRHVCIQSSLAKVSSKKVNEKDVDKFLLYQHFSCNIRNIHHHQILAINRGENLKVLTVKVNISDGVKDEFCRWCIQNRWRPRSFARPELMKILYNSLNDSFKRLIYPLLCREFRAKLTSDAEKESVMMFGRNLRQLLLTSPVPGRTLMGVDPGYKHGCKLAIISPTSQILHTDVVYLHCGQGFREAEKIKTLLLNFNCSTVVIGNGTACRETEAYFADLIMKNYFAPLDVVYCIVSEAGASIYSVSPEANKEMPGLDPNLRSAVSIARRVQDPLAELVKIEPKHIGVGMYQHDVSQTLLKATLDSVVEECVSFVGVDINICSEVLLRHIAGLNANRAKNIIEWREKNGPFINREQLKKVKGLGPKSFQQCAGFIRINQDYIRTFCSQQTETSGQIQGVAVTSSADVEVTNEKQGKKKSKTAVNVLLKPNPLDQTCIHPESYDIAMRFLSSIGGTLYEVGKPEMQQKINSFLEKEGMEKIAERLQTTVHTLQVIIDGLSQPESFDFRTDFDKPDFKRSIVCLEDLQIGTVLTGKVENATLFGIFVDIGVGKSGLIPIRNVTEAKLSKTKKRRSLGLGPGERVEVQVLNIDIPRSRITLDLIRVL
UniProt Q9Y6N5: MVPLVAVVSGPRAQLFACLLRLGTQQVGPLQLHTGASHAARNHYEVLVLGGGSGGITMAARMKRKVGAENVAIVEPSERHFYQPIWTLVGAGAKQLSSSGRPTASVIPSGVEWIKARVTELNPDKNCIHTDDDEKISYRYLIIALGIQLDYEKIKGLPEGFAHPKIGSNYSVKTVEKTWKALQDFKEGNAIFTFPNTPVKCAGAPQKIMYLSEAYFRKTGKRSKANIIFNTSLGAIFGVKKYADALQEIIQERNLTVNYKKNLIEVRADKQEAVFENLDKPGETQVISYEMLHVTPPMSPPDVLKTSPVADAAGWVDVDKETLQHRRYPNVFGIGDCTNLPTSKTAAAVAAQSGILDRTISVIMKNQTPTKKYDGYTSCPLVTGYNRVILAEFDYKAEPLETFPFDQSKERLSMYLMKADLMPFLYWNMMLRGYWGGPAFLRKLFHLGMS
UniProt O15270: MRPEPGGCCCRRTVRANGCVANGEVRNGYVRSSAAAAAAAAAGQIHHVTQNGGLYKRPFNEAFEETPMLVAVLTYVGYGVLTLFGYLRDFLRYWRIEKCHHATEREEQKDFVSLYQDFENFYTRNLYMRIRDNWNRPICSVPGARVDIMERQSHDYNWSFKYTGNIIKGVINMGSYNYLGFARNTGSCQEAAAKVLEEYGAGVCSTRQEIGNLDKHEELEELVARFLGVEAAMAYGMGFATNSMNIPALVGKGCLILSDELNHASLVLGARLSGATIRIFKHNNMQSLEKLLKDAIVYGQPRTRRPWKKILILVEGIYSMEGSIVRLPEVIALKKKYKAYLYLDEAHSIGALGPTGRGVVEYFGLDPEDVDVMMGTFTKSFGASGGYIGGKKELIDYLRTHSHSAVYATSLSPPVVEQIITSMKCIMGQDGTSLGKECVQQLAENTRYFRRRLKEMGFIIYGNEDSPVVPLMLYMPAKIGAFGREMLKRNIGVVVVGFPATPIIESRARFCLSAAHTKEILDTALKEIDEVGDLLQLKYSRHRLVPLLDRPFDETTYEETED
UniProt P35270: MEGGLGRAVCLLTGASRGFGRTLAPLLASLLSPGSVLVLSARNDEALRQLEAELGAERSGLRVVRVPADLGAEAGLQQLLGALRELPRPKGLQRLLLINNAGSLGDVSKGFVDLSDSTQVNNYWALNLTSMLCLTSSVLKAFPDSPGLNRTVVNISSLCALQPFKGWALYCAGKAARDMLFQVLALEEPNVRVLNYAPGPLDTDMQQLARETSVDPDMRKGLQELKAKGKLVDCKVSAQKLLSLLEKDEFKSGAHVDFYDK
UniProt Q96EA4: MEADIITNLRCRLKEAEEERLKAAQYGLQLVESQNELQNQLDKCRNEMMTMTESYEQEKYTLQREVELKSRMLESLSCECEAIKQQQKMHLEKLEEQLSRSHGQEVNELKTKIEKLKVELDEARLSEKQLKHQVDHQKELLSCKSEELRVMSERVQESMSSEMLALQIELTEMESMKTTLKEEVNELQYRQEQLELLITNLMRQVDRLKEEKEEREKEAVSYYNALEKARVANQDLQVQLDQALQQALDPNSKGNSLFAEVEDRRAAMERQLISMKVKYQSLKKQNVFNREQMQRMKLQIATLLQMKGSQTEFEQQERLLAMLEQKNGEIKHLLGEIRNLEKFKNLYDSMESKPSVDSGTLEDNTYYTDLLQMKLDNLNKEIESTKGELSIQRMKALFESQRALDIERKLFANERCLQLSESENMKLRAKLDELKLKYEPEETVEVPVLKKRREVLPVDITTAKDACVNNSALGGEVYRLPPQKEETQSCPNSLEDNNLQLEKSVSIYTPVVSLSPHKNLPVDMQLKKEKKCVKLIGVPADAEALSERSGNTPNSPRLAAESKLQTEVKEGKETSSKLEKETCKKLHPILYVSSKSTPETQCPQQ
UniProt Q12772: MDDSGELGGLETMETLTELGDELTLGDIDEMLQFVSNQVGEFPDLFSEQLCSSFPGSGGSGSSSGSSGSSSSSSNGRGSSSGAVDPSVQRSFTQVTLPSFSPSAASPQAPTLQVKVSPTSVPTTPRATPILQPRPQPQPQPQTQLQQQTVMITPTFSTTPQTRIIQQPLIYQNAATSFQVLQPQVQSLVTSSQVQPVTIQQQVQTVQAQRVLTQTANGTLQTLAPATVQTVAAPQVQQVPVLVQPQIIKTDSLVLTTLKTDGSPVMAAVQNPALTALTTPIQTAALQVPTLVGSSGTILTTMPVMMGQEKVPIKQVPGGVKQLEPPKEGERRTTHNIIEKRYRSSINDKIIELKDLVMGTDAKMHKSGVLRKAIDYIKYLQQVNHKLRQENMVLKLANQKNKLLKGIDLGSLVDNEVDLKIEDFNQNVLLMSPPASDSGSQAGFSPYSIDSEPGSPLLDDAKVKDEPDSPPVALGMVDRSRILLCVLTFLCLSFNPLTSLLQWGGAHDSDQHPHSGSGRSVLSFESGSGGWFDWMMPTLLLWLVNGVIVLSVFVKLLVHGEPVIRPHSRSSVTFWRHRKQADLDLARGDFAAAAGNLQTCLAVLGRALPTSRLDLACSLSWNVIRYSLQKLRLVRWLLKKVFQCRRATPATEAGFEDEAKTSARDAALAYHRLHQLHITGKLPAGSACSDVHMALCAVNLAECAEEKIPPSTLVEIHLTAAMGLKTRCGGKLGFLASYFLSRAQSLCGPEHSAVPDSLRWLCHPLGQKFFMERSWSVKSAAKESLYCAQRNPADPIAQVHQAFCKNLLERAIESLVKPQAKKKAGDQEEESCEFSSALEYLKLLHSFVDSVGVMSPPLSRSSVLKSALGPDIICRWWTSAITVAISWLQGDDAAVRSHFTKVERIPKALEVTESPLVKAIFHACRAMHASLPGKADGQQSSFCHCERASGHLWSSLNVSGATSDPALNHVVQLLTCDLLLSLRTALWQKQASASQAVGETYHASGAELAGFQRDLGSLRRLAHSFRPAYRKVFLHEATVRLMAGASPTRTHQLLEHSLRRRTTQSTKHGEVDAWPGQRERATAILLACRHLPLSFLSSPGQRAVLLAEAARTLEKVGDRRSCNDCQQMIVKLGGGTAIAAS
UniProt Q8NBT2: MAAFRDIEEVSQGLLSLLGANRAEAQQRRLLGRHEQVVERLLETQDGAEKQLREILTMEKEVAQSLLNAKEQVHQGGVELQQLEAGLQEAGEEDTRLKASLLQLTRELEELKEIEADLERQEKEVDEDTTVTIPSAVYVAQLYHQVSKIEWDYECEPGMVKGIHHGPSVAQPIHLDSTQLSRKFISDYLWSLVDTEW
UniProt Q9Y5W7: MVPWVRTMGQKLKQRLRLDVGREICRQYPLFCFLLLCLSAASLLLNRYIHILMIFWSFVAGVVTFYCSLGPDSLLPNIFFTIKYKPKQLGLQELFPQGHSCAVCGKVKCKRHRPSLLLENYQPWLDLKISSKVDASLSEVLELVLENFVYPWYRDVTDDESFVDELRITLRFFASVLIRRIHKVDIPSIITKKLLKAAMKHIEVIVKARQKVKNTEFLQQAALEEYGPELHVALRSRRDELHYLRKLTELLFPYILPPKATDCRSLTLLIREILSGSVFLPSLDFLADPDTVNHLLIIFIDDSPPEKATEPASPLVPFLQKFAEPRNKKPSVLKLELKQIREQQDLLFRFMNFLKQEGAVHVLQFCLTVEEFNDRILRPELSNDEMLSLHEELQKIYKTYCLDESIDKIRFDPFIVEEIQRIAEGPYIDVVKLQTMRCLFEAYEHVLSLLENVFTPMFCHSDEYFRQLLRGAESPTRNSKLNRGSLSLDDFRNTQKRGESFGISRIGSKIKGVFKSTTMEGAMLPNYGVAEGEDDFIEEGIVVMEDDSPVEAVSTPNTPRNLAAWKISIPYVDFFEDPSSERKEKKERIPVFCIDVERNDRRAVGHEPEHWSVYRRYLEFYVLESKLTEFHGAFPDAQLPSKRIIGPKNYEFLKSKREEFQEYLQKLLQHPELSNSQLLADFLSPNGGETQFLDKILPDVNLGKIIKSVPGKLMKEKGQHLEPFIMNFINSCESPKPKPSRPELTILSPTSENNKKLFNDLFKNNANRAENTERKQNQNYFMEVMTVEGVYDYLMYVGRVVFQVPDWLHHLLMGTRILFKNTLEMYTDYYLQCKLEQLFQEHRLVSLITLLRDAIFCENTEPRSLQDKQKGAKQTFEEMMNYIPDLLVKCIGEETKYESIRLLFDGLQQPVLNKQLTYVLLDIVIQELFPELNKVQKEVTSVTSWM

Compound in the test: CC1Cc2ccccc2N1C(=O)C1CCCN(C1)C(=O)CCl (mixture of isomers) [TRIM25 ligand 11 (diastereomer mixture)]
Kind of test: probe-labelled cysteine peptide fold change vs DMSO (competition) (log2 fold change); higher = less target engagement (more negative = stronger competition). The conditions noted are these: THP-1, incubation time: 4 h.

Some of the results follow.
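Also: competitive chemoproteomic profiling in live THP-1 cells with an iodoacetamide desthiobiotin (IA-DTB) probe, comparing probe-labelled peptide intensities in compound-treated cells against DMSO-treated controls.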

For “SORD_Q00796_120_YNLSPSIFFCATPPDDGNLCR (UniProt Q00796)”, the “probe-labelled cysteine peptide fold change” value stood at 0.0586 (10 µM) and 0.497 (50 µM).

With “SNRPD3_P62318_41_LIEAEDNMNCQMSNITVTYR (UniProt P62318)”, the “probe-labelled cysteine peptide fold change” value (10 µM) was determined as 0.0162 and the “probe-labelled cysteine peptide fold change” value (50 µM) was 0.0414.

Consider “SRP72_O76094_179_VVPENLGLQEGTHELCYNTACALIGQGQLNQAMK (UniProt O76094)”, for which the “probe-labelled cysteine peptide fold change” value (10 µM) stood at 0.0902 and the “probe-labelled cysteine peptide fold change” value (50 µM) stood at 0.192.

Take “SPPL2B_Q8TCT7_45_DYCILYNPQWAHLPHDLSK (UniProt Q8TCT7)”: the “probe-labelled cysteine peptide fold change” value was -0.0202 (10 µM) and -0.138 (50 µM).

As for “SPECC1_Q5M775_493_LLNIQQQLTCSLR (UniProt Q5M775)”, the “probe-labelled cysteine peptide fold change” value is -0.0352 (10 µM) and -0.117 (50 µM).

With “SPTAN1_Q13813_1930_DRVNDVCTNGQDLIK (UniProt Q13813)”, the “probe-labelled cysteine peptide fold change” value (10 µM) was 0.00721 and the “probe-labelled cysteine peptide fold change” value (50 µM) was 0.386.

For “SORBS3_O60504_521_LCDDGPQLPTSPR (UniProt O60504)”, the “probe-labelled cysteine peptide fold change” value reads like this: (10 µM) -0.0702; (50 µM) -0.115.

For “SP100_P23497_16_LNECISPVANEMNHLPAHSHDLQR (UniProt P23497)”, the “probe-labelled cysteine peptide fold change” value was -0.103 (10 µM) and -0.152 (50 µM).

“SPART_Q8N0X7_562_CIVNNVSAETVQTVR (UniProt Q8N0X7)”: the “probe-labelled cysteine peptide fold change” value by setting is: (10 µM) -0.0377; (50 µM) 0.00854.

Take “SRBD1_Q8N5C6_912_SIVCLEDLQIGTVLTGK (UniProt Q8N5C6)”: the “probe-labelled cysteine peptide fold change” value is 0.0769 (10 µM) and -0.14 (50 µM).

Turning to “SORD_Q00796_350_CDPSDQNP (UniProt Q00796)”, the “probe-labelled cysteine peptide fold change” value (10 µM) is -0.0424 and the “probe-labelled cysteine peptide fold change” value (50 µM) was -0.0486.

As for “SRBD1_Q8N5C6_397_RHVCIQSSLAK (UniProt Q8N5C6)”, the “probe-labelled cysteine peptide fold change” value was 0.0842 (10 µM) and -0.057 (50 µM).

For the target “SPECC1_Q5M775_578_ATEASAVEQTAESCEVQEMLK (UniProt Q5M775)”, the “probe-labelled cysteine peptide fold change” value is, setting by setting: (10 µM) 0.0146; (50 µM) -0.159.

With “SPATA5_Q8NB90_672_GVLLYGPPGCSK (UniProt Q8NB90)”, the “probe-labelled cysteine peptide fold change” value is, setting by setting: (10 µM) 0.121; (50 µM) 0.0949.

In the case of “SON_P18583_1551_EMEHNTVCAAGTSPVGEIGEEK (UniProt P18583)”, the “probe-labelled cysteine peptide fold change” value is 0.0276 (10 µM) and -0.264 (50 µM).

On to “SQOR_Q9Y6N5_379_KYDGYTSCPLVTGYNR (UniProt Q9Y6N5)”, for which the “probe-labelled cysteine peptide fold change” value (10 µM) was -0.0228 and the “probe-labelled cysteine peptide fold change” value (50 µM) was determined as 0.0291.

With “SNX5_Q9Y5X3_346_LAEAHQQECCQK (UniProt Q9Y5X3)”, the “probe-labelled cysteine peptide fold change” value by setting is: (10 µM) -0.0347; (50 µM) 0.0484.

For “SNX8_Q9Y5X2_200_ESAQCVGDEFLNCK (UniProt Q9Y5X2)”, the “probe-labelled cysteine peptide fold change” value was -0.145 (10 µM) and -0.286 (50 µM).

For the target “SPTLC2_O15270_188_NTGSCQEAAAK (UniProt O15270)”, the “probe-labelled cysteine peptide fold change” value by setting is: (10 µM) 0.0981; (50 µM) 0.0507.

Turning to “SPAG9_O60271_761_NQEELSSLVWICTSTHSATK (UniProt O60271)”, the “probe-labelled cysteine peptide fold change” value by setting is: (10 µM) 0.219; (50 µM) 0.177.

On to “SPATS2_Q86XZ4_280_QAFAELESCLMDR (UniProt Q86XZ4)”, for which the “probe-labelled cysteine peptide fold change” value is, setting by setting: (10 µM) -0.0871; (50 µM) 0.149.

Regarding “SQSTM1_Q13501_131_NMVHPNVICDGCNGPVVGTR (UniProt Q13501)”, the “probe-labelled cysteine peptide fold change” value was -0.133 (10 µM) and 0.0255 (50 µM).

In the case of “SPTLC2_O15270_511_FCLSAAHTK (UniProt O15270)”, the “probe-labelled cysteine peptide fold change” value is -0.0923 (10 µM) and -0.0466 (50 µM).

For “SPR_P35270_159_TVVNISSLCALQPFK (UniProt P35270)”, the “probe-labelled cysteine peptide fold change” value was 0.0343 (10 µM) and -0.0945 (50 µM).

With “SPDL1_Q96EA4_490_EETQSCPNSLEDNNLQLEK (UniProt Q96EA4)”, the “probe-labelled cysteine peptide fold change” value is, setting by setting: (10 µM) 0.0497; (50 µM) -0.157.

On to “SNX6_Q9UNH7_149_TVAMHEVFLCR (UniProt Q9UNH7)”, for which the “probe-labelled cysteine peptide fold change” value was -0.00902 (10 µM) and -0.143 (50 µM).

For “SQOR_Q9Y6N5_201_CAGAPQK (UniProt Q9Y6N5)”, the “probe-labelled cysteine peptide fold change” value was -0.0709 (10 µM) and -0.0121 (50 µM).

Take “SNX1_Q13596_318_LQEVECEEQR (UniProt Q13596)”: the “probe-labelled cysteine peptide fold change” value is 0.0284 (10 µM) and -0.00471 (50 µM).

Take “SORD_Q00796_45_MHSVGICGSDVHYWEYGR (UniProt Q00796)”: the “probe-labelled cysteine peptide fold change” value is, setting by setting: (10 µM) -0.103; (50 µM) -0.493.

Regarding “SPRYD3_Q8NCJ5_147_IGCGIEPVSFDVQTAQIFFTK (UniProt Q8NCJ5)”, the “probe-labelled cysteine peptide fold change” value (10 µM) is -0.137 and the “probe-labelled cysteine peptide fold change” value (50 µM) was -0.375.

Consider “SNX9_Q9Y5X1_492_DLHFLMECNHEYK (UniProt Q9Y5X1)”, for which the “probe-labelled cysteine peptide fold change” value (10 µM) was -0.0515 and the “probe-labelled cysteine peptide fold change” value (50 µM) was -0.0586.

Regarding “SQOR_Q9Y6N5_337_RYPNVFGIGDCTNLPTSK (UniProt Q9Y6N5)”, the “probe-labelled cysteine peptide fold change” value by setting is: (10 µM) 0.00602; (50 µM) -0.00437.

Consider “SREBF2_Q12772_832_AGDQEEESCEFSSALEYLK (UniProt Q12772)”, for which the “probe-labelled cysteine peptide fold change” value (10 µM) was 0.0142 and the “probe-labelled cysteine peptide fold change” value (50 µM) was determined as 0.158.

As to “SPC24_Q8NBT2_155_IEWDYECEPGMVK (UniProt Q8NBT2)”, the “probe-labelled cysteine peptide fold change” value was -0.149 (10 µM) and -0.116 (50 µM).

Consider “SP1_P08047_691_FACPECPK (UniProt P08047)”, for which the “probe-labelled cysteine peptide fold change” value worked out at 0.0671 (10 µM) and 0.226 (50 µM).

Regarding “SNX12_Q9UMY4_141_CLHMFLQEEAIDR (UniProt Q9UMY4)”, the “probe-labelled cysteine peptide fold change” value was -0.0267 (10 µM) and -0.0364 (50 µM).

As for “SRI_P30626_163_ITFDDYIACCVK (UniProt P30626)”, the “probe-labelled cysteine peptide fold change” value runs as follows: (10 µM) -0.183; (50 µM) -0.128.

Consider “SPAG7_O75391_191_TYGCVPVANKR (UniProt O75391)”, for which the “probe-labelled cysteine peptide fold change” value was -0.262 (10 µM) and -0.196 (50 µM).

In the case of “SNX14_Q9Y5W7_857_DAIFCENTEPR (UniProt Q9Y5W7)”, the “probe-labelled cysteine peptide fold change” value (10 µM) came out at 0.31 and the “probe-labelled cysteine peptide fold change” value (50 µM) worked out at 0.161.
